# Hit rate of the full screen: of about 580,000 compounds, about 6,100 (1.1%) were called active. The shares of active, inactive and inconclusive entries below differ from those in the screen. Calls follow the shape of the dose curve; as a rule, active = well fitted inhibition curve with a large enough effect; inconclusive = small, poorly fitted or top-dose-only effect, or another doubt; inactive = no such curve, though single readings can be large or run the other way. Where the call is inconclusive, the potency comes from a doubtful curve fit.
# Amino acid sequences for entries named in this document (tags omitted). A change or cut given only in a name is not applied to a line headed by its entry.
# UniProt P18054: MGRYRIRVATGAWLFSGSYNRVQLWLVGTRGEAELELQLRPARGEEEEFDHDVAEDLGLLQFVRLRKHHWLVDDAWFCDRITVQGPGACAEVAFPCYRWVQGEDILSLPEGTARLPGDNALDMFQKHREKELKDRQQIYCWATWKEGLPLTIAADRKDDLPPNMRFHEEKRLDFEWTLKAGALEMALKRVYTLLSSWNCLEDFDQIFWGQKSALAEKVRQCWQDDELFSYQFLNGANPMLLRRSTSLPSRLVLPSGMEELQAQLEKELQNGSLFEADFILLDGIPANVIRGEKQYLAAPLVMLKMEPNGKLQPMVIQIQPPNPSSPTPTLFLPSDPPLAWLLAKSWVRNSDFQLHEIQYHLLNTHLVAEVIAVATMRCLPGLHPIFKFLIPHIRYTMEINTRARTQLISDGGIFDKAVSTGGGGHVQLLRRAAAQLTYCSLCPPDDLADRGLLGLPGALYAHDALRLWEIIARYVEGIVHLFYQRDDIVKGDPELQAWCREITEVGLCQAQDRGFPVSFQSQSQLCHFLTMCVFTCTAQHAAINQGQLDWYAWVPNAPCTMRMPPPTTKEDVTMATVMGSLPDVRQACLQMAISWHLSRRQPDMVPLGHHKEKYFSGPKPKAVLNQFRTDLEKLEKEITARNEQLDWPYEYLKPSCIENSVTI
# Target: Polyunsaturated fatty acid lipoxygenase ALOX12 (Homo sapiens) (UniProt P18054)
# Assay: Primary qHTS assay for inhibitors of human arachidonate 12S-lipoxygenase (ALOX12): Round 2
# Details: purified 12hLO, xylenol orange hydroperoxide absorbance; activity change, negative = inhibition: at 108 µM (top of the series) unless noted
# Method in brief: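 Purified human 12hLO at 150 nM in 25 mM Hepes, 0.01% Triton X-100, pH 7.0, preincubated 15 min at room temperature with compound. Reaction started with 40 uM arachidonic acid, 30 min at room temperature. Hydroperoxide measured by Fe-xylenol orange, 573/405 nm absorbance ratio.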
# % is scaled to controls: 0 for no effect and ±100 for the full control effect; potency is read from the fitted curve at half-maximal effect.
Compound,"activity change, negative = inhibition",Potency
CCCCCNC(=O)CCC(=O)NCCCCC,inactive: 5.31%,–
Cc1ccc(Oc2ccc(S(=O)(=O)NCC(C)(C)N3CCOCC3)cc2)cc1,–,"inconclusive: 112 µM [inhibitor, partial curve, poor fit]"
COc1cc2c(cc1OC)C(c1cccc(Cl)c1Cl)CC(=O)N2 (configuration not stated),inactive: 10.5%,–
O=C(O)Cn1c(CCS(=O)(=O)c2ccc(Br)cc2)nc2ccccc21,inactive: -5.47%,–
CN1CC(=O)N(C2CCCNCC2)Cc2c(NCc3ccccn3)ncnc21 (configuration not stated),–,"inconclusive: 3.2 µM [inhibitor, partial curve, poor fit]"
CN1CCN(Cc2ccc(-c3cnc4c(OCc5ccccc5)nccn34)cc2)CC1,–,"inconclusive: 39.8 µM [inhibitor, full curve, poor fit]"
COC(=O)c1ccccc1N=Nc1c(N)n[nH]c1N,inactive: 153%,–
NS(=O)(=O)c1ccc(Nc2ccc3cc(S(=O)(=O)N4CCCCC4)ccc3n2)cc1,inactive: -17.6%,–
Cc1nc(Nc2nc3ccccc3o2)ncc1C(=O)Nc1ccccc1C(F)(F)F,inactive: 50.8%,–
CS(=O)(=O)N1N=C(c2ccco2)CC1c1ccc(Br)cc1 (configuration not stated),–,"inconclusive: 44.7 µM [inhibitor, partial curve, poor fit]"
CCCCC(=O)Nc1ccc(C(=O)NNC(=O)c2ccco2)cc1,inactive: 4.6%,–
Cc1ccc(CSc2nnc(-c3cccc(S(=O)(=O)N4CCOCC4)c3)n2CC(C)C)cc1,inactive: -23.9%,–
Cc1ccc(NC(=O)COC(=O)COc2cccc3c2OC(C)(C)C3)c(C)c1,inactive: 3.25%,–
O=C(CCCCn1c(=O)c2ccccc2n(Cc2ccccc2Cl)c1=O)NCc1ccc2c(c1)OCO2,–,"inconclusive: 11.2 µM [inhibitor, partial curve, poor fit]"
O=C(O)CCc1ccc(-c2ccc(Br)cc2)n1NC(=O)c1ccc(O)cc1,–,"inconclusive: 3.98 µM [inhibitor, full curve, poor fit]"
Cc1cc(=O)oc2c(C)c(OCC(=O)NC3CCS(=O)(=O)C3)ccc12 (configuration not stated),inactive: 10.3%,–
CCc1ccc2ncc(S(=O)(=O)c3ccc(C)c(C)c3)c(N3CCOCC3)c2c1,–,"inconclusive: 4.47 µM [inhibitor, full curve, poor fit]"
COC(=O)C1=C(C)NC(C)=C(C(=O)OCC(C)C)C1c1ccccc1[N+](=O)[O-] (configuration not stated),–,"inconclusive: 20 µM [inhibitor, full curve]"
CC(C)CCn1c(SCc2ccc(Cl)cc2)nc2c1c(=O)[nH]c(=O)n2C,–,"inconclusive: 50.1 µM [inhibitor, partial curve, poor fit]"
CCNC(=O)NC(=O)CN1CCN(c2oc(C3CC3)nc2C#N)CC1,–,"inconclusive: 39.8 µM [inhibitor, partial curve, poor fit]"
CC(C)Oc1cccc(C(=O)Nc2ccc3oc(-c4cccc(Cl)c4)nc3c2)c1,inactive: 0%,–
Cc1ccc(Nc2c(-c3ccc(Cl)cc3)nc3sccn23)c(C)c1,–,"inconclusive: 20 µM [inhibitor, partial curve, poor fit]"
Cc1ccc(NC(=O)C(Sc2cccc[n+]2[O-])c2ccccc2)cc1 (configuration not stated),inactive: -21.7%,–

Compound,"activity change, negative = inhibition",Potency
Cc1cccc(OC(C)C(=O)OCC(=O)N2CCN(c3ccccc3)CC2)c1 (configuration not stated),inactive: -0.0756%,–
CN1CCN(c2ncc3nc(-c4ccccc4)c(=O)n(C4CC4)c3n2)CC1,–,"inconclusive: 28.2 µM [inhibitor, partial curve, poor fit]"
N#Cc1ccc(N2CCC(C(=O)Nc3ccc(S(=O)(=O)N4CCCC4)cc3)CC2)nc1,–,"inconclusive: 31.6 µM [inhibitor, partial curve, poor fit]"
Cc1ccc(NC(=O)c2cc(-c3ccc[nH]3)n[nH]2)cc1,–,"inconclusive: 15.8 µM [inhibitor, full curve]"
Cc1ccc(C(=O)c2ccc([N+](=O)[O-])cc2)cc1,–,"inconclusive: 100 µM [inhibitor, single point]"
O=C(NNC(=O)C12CC3CC(CC(C3)C1)C2)c1ccccc1F,inactive: -5.34%,–
CC(=O)N1CCN(c2ccc([N+](=O)[O-])c(-n3nc(C)cc3C)c2)CC1,–,"inconclusive: 15.8 µM [inhibitor, full curve, poor fit]"
COc1ccc(NC(=O)C2CC(c3ccc(OC)c(OC)c3)=NO2)cc1OC (configuration not stated),inactive: 0%,–
CC1(C)CCC(C)(C)c2cc(C(=O)Nc3ccc(C(=O)O)cc3)ccc21,inactive: 282%,–
Cc1ccc(NC(=O)CSc2nccn2Cc2ccco2)cc1Cl,–,"inconclusive: 100 µM [inhibitor, partial curve, poor fit]"
COc1cccc(NC(=O)c2ccccc2N2C(=O)C3C4C=CC(C5CC45)C3C2=O)c1 (configuration not stated),–,"inconclusive: 3.98 µM [inhibitor, full curve, poor fit]"
O=C(NC1CCCCC1)N[C@H]1C[C@H]2C(=O)N3CCC[C@@H]3C(=O)N2C1,–,"inconclusive: 28.2 µM [inhibitor, full curve, poor fit]"
COc1ccc(CN2C(=O)c3cccnc3C2=O)cc1S(=O)(=O)NCc1ccco1,–,"inconclusive: 56.2 µM [inhibitor, partial curve, poor fit]"
COCCn1c(SC(C)C(=O)OC)nc2c1c(=O)[nH]c(=O)n2C (configuration not stated),–,"inconclusive: 50.1 µM [inhibitor, partial curve]"
Cc1ccc(C2=NOC(=O)/C2=C\c2ccc(C)o2)cc1,–,active: 15.8 µM
CCNC(=O)Nc1ccc(OCC(=O)N2CCCCC2)nc1,inactive: 41.2%,–
COc1cccc(C(=O)OCCN2CCCCC2)c1,–,"inconclusive: 28.2 µM [inhibitor, single point]"
COc1ccc(CNC(=O)C(=O)c2c[nH]c3ccccc23)cc1,inactive: -17.8%,–
COc1ccc(/C=N/OCC(=O)Nc2nc3ccccc3s2)cc1OC,inactive: -3.73%,–
CCOCCCNCc1cc(Cl)ccc1OCC,–,"inconclusive: 112 µM [inhibitor, single point]"
Cc1ccc(NC(=O)COC(=O)c2ccccc2Nc2ccccc2)cc1,inactive: 4.82%,–
O=C(CCSc1nc2ccccc2s1)N/N=C/c1c(O)ccc2ccccc12,inactive: -17.9%,–
CN(C)C(=O)CCc1ccc2c3c([nH]c2c1)[C@]1(C)[C@@H](C(=O)N2CCOCC2)C[C@H](CC(=O)NCCC2=CCCCC2)C(=O)N1CC3,inactive: -25.3%,–

# Not a retest: an excerpt of the list.
Compound,"activity change, negative = inhibition",Potency
CN1CCN(Cc2ccc(-c3cnc4c(OCc5ccccc5)nccn34)cc2)CC1,–,"inconclusive: 39.8 µM [inhibitor, full curve, poor fit]"
COC(=O)c1ccccc1N=Nc1c(N)n[nH]c1N,inactive: 153%,–
NS(=O)(=O)c1ccc(Nc2ccc3cc(S(=O)(=O)N4CCCCC4)ccc3n2)cc1,inactive: -17.6%,–

# Remaining list, next part:

Compound,"activity change, negative = inhibition",Potency
COC(=O)C(NNc1ccc(F)cc1)(NC(=O)c1ccccc1)C(F)(F)F (configuration not stated),–,"inconclusive: 44.7 µM [inhibitor, partial curve, poor fit]"
COC(=O)[C@@H]1Cc2ncn(C)c2CN1C(=O)c1ccc(-c2ccccc2)cc1,–,"inconclusive: 14.1 µM [inhibitor, partial curve, poor fit]"
CCOC(=O)C1=c2s/c(=C\c3ccncc3)c(=O)n2C(N)=C(C(=O)OC)C1c1ccncc1 (configuration not stated),inactive: -8.76%,–
O=C(CN1CCCC1)Nc1ccc(OC(F)(F)F)cc1,–,"inconclusive: 1.58 µM [inhibitor, full curve, poor fit]"
CCCC(=O)Nc1sc2c(c1C#N)CCC(C(C)(C)C)C2 (configuration not stated),–,"inconclusive: 12.6 µM [inhibitor, partial curve]"
COC(=O)[C@]12C[C@H](CC(=O)N3CCCCC3)C(=O)N(Cc3ccccc3)C1=C[C@H](C(C)(C)C)O[C@@H]2C,–,"inconclusive: 0.794 µM [inhibitor, full curve, poor fit]"
CC[C@]12c3[nH]c4cc(-c5ccco5)ccc4c3CCN1C(=O)[C@@H](CC(=O)NCCCn1ccnc1)C[C@@H]2C(=O)N1CCN(C(=O)c2ccco2)CC1,–,"inconclusive: 31.6 µM [inhibitor, single point]"
Cc1ccc(S(=O)(=O)N2CCC(=O)N([C@H](COCc3ccc(C(F)(F)F)cc3)Cc3ccccc3)CC2)cc1,–,"inconclusive: 28.2 µM [inhibitor, partial curve, poor fit]"
COc1ccc(C2C(C(C)=O)=C(O)C(=O)N2CCc2ccccc2)c(OC)c1 (configuration not stated),–,"inconclusive: 56.2 µM [inhibitor, partial curve, poor fit]"
CC1(c2ccc(OC(F)F)cc2)NC(=O)N(CC(=O)Nc2ccccc2)C1=O (configuration not stated),inactive: 0.155%,–
N#Cc1ccc(C(=O)Nc2ccc(NC(=O)c3cc4ccccc4o3)cc2)c(F)c1,–,"inconclusive: 39.8 µM [inhibitor, partial curve, poor fit]"
CC(/C=N/n1c(-c2ccncc2)n[nH]c1=S)=C\c1ccco1,–,active: 7.08 µM
COc1cccc2cc(C(=O)C3=C(O)C(=O)N(c4cc(C)on4)C3c3cccs3)oc12 (configuration not stated),–,"inconclusive: 39.8 µM [inhibitor, partial curve]"
Cn1c(=O)c2c(n3c4ccccc4nc13)NC(=O)CC2c1cccc(F)c1 (configuration not stated),–,"inconclusive: 2.24 µM [inhibitor, full curve, poor fit]"
CCc1cccc(NC(=O)Cn2nc3ccc(S(=O)(=O)C(C)(C)C)nn3c2=O)c1,inactive: 2.2%,–
Fc1cccc(C=Nc2cccc3c(N=Cc4cccc(F)c4)cccc23)c1,–,"inconclusive: 44.7 µM [inhibitor, partial curve, poor fit]"
COCCn1c2c([n+](Cc3cnccn3)c1C)C(=O)c1ccccc1C2=O,–,"inconclusive: 19.3 µM [inhibitor, partial curve, poor fit]"
Cc1ccc2[nH]cc(CCNC(=O)Cc3ccc(F)cc3)c2c1,inconclusive: -43% [inhibitor],–
Cc1ccccc1C(=O)N(Cc1ccco1)C1CC1,inactive: 18.5%,–
Cc1cc(C(=O)COc2cccc(C#N)c2)c(C)n1CCC(C)C,–,"inconclusive: 6.31 µM [inhibitor, full curve, poor fit]"
Cc1cc(NC(=O)C(C)SCC(=O)NCc2ccc(F)cc2)no1 (configuration not stated),–,"inconclusive: 70.8 µM [inhibitor, single point]"
